Patent publication US20230250186A1
Numbering of substitutions follows the chain as printed. Results are given in words; binding and its absence hold for the method and conditions named. Some results given as binding are weak or reduced against the parent protein; the word gives no strength.

Chains of the proteins cited; added tags and fusions are not shown. Residues count along the entry.
UniProt P28907, residues 43-300: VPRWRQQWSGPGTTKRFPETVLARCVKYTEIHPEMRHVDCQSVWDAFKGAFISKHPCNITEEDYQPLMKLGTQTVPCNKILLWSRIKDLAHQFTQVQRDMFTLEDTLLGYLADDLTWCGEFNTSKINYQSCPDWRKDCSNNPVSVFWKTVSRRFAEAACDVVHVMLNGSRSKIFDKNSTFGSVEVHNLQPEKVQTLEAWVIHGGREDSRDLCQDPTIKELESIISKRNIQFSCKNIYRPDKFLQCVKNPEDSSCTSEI

B1: SG003M1 antibody (antibody, human IgG1, kappa, V domains shown)
VH: QVQLLESGGGLVQPGGSLKLSCVASGYNFSLYYMNWVRQAPGKGLEWIGKIQPESSTIQYTPSLKDKFFISRDNAKNTLYLQMTKVRSEDTALYYCARLWIGSGGFDYWGQGTTLTVSS
VL: EIVMTQSPASLSASLGQRASISCRASNSVSSSAYSYVHWYQQKSGQPPKLLIYLASNIQSGVPARFSGSGSGTDFTLTIHPVESEDVATYYCHHSRQLPSTFGSGTKLEIKR
B2: SG003M2 antibody (antibody, human IgG1, kappa, V domains shown)
VH: B1 VH with Y27F, N28D, Y33W, Q52S, E54N, Q59N, T61S, W100Y, G102A
VL: B1 VL with S20T, N27S, N57D, I58L, Q97E, S100Y, T101S
B3: SG003M3 antibody (antibody, human IgG1, kappa, V domains shown)
VH: QVQLLESGGGLVQPGGSLKLSCVASGFDFSLYWMNWVRQAPGKGLEWIGKISPDSSSLNYTPSVKDKFFISRDNAKNTLYLQMTKVRSEDTALYYCARLWIATGGYNYWGQGTTLTVSS
VL: B1 VL with S20T, S31T, Y34F, I58L, Q59E, Q97E, L98V, S100F

Biological target: antigen CD38 (UniProt P28907)
Experiment: binding curve of FIG. 9; method not clearly stated

Binder	binding
B1	binds
B2	binds
B3	binds
